Reference: PubChem BioAssay AID2685 (National Center for Advancing Translational Sciences (NCATS), 2010)
Some of the results follow. These are further read-outs of the screen, such as a control signal, another cell line or another target. No call is given for them. Most of these compounds were active or inconclusive in the main read-out, so they are no random draw. The note in brackets gives the kind of curve behind each potency; many fits are weak.

Experiment: qHTS Assay for Lipid Storage Modulators in Drosophila S3 Cells;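 as to cell number change: cells counted by Cell Tracker Red CMTPX staining in the red channel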
Settings: BODIPY lipid droplet fluorescence, 18-24 h; for cell number change: measured here: cell count max response, cells fed with added oleic acid
Procedure, shortened: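 Drosophila S3 cells got compounds at several concentrations plus oleic acid (400 uM solution). Laser-scanning cytometry with 488 nm excitation read lipid droplets at 500-530 nm and cells at 575-640 nm. Percent activity was relative to 20 uM Triacsin C.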

[1] = measured here: lipid fluorescence (Fed channel) AC50, cells fed with added oleic acid
[2] = measured here: cell number channel AC50, cells fed with added oleic acid

| SMILES | cell number change [%] | AC50 [1] | AC50 [2] |
| --- | --- | --- | --- |
| CCc1nc(SCC(=O)c2cccs2)c2oc3ccccc3c2n1 | -25 | 18.4 µM [falling, single point] |  |
| O=C(CCc1ccccc1)NC(=S)Nc1cccc(C(=O)O)c1 | 24.4 | 29.1 µM [rising, single point] |  |
| Cc1nn(C)c(C)c1CN(C)C(=O)C1CCC(=O)N(C2CCCCCC2)C1 (stereo unspecified) | 1.94 |  | 0.184 µM [rising, full curve, poor fit] |
| CCOC(=O)C1/C(=N\O)CC(C)(O)C(C(=O)OCC)C1c1ccc(N(C)C)cc1 (stereo unspecified) |  |  | 4.11 µM [rising, single point] |
| CNC(=O)c1cc2cc(OC)ccc2oc1=O | 25.6 |  |  |
| COC(=O)c1c(NC(=O)Cc2ccccc2)sc(C)c1C |  | 2.91 µM [rising, partial curve] | 1.46 µM [rising, partial curve] |
| O=C(CSc1nccn1-c1ncc(C(F)(F)F)cc1Cl)c1ccc(Br)cc1 | 10.2 | 6.51 µM [rising, partial curve] |  |
| CCCCS(=O)c1snnc1C (stereo unspecified) | 78.2 | 4.11 µM [falling, partial curve] | 3.26 µM [falling, single point] |
| COc1c(O)cc2c(c1O)[C@@H]1O[C@H](CO)[C@@H](O)[C@H](O)[C@H]1OC2=O | -13.9 | 0.58 µM [falling, partial curve] |  |
| N#Cc1cc(C(=O)c2ccccc2O)cn(-c2nccs2)c1=O | 2.33 | 11.6 µM [rising, partial curve] |  |
| CCOc1ccc(NC(=O)CC2SC(N)=NC2=O)c([N+](=O)[O-])c1 (stereo unspecified) | 9.09 |  |  |
| O/C(=C\c1nc2ccccc2nc1/C=C(\O)c1ccccc1)c1ccccc1 | 9.63 | 0.00461 µM [rising, full curve, poor fit] |  |
| O=C(Nc1ccc(N2C(=O)C3C4C=CC(C4)C3C2=O)cc1)Nc1nnc(C(F)(F)F)s1 (stereo unspecified) | -39.8 | 0.13 µM [falling, full curve, poor fit] | 0.411 µM [falling, full curve, poor fit] |
| COc1ccc(NC(=O)CSCC(=O)N(C)CCOc2ccc(Cl)cc2)cc1 | 3.3 | 4.11 µM [rising, partial curve] |  |
| COc1ccc(CNC(=O)C2CCC(CNS(=O)(=O)c3ccc(C)cc3)CC2)cc1 (stereo unspecified) | 23.2 | 3.26 µM [rising, full curve, poor fit] |  |
| Cc1c(Cl)cccc1NC(=O)C1Cc2ccccc2CN1C(=O)c1ccccc1 (stereo unspecified) | 15 | 4.11 µM [rising, full curve, poor fit] |  |

Single records (already shown):
`N#Cc1cc(C(=O)c2ccccc2O)cn(-c2nccs2)c1=O` is listed as cell number change [%]: 2.33; AC50 [1]: 11.6 µM [rising, partial curve]
`O=C(Nc1ccc(N2C(=O)C3C4C=CC(C4)C3C2=O)cc1)Nc1nnc(C(F)(F)F)s1` (stereo unspecified) is listed as cell number change [%]: -39.8; AC50 [1]: 0.13 µM [falling, full curve, poor fit]; AC50 [2]: 0.411 µM [falling, full curve, poor fit]
